Data as given in publication PMC7819943, “Rice protein-binding microarrays: a tool to detect cis-acting elements near promoter regions in rice”.
The list shows a part of the results.

Sequences of proteins named here, by UniProt entry; tags and fusion partners are left off.
UniProt Q0JBA9, entry or part of it: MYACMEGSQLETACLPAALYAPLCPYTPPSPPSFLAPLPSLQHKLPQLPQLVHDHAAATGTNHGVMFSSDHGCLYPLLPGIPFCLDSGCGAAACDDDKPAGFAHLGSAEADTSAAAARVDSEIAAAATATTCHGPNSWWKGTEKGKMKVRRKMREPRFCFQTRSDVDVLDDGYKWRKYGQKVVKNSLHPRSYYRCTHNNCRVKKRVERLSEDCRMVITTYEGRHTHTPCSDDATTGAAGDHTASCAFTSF

These sequences were tested against OsWRKY34 (Oryza sativa, UniProt Q0JBA9 1-250) (assay: protein-binding microarray (RPBM); PBS, 2% BSA, 51.3 ng/ul salmon testes DNA, 50 uM zinc acetate, 200 nM TF, 25 C, 1 h; high values mean tight binding). Settings: protein: recombinant; tags: N-terminal polyhistidine and DsRed monomer fusion (pET32a); label: CyDye5-dUTP incorporated in the synthesized complementary strand; 3' TTTTT single-stranded linker to array surface; dsDNA, one strand shown.
Outline: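 In PBS with 2% BSA, salmon testes DNA and 50 µM zinc acetate, 200 nM protein was incubated on a custom Agilent array at 25 °C for 1 h and then washed off. The array had been made double-stranded by primer extension with Cy5-dUTP and blocked with 2% BSA. The proteins were transcription factors fused N-terminally to polyhistidine and DsRed, expressed in E. coli BL21-CodonPlus and purified on Ni–NTA. The binding signal is per-feature fluorescence intensity (arbitrary units) from an Axon 4000B scanner.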
“GTAAAGGAAAGGAACACGTACGTTTGTGCTCATTGTTGACCGGAGTCACCTAGTGCAG” was tested, and the binding signal was 8240 fluorescence intensity (a.u.). With “AGAGGGAGAGGGAGGGGTGGCGCTGCGGCGAGAAGTGATGCGGAGTCACCTAGTGCAG” the binding signal was 10400 fluorescence intensity (a.u.). With “GGAGAGATTAGGGTTGGGGAGCGGCGCGCGGTTGGGGAGGCGGAGTCACCTAGTGCAG” the binding signal was 10500 fluorescence intensity (a.u.). With “CCACGCCAATTTGAATCTGTTACTTGCTTGAATCTCCGTGCGGAGTCACCTAGTGCAG” the binding signal was 8550 fluorescence intensity (a.u.). For “TTTTTCGCACGTTCTCTTTCGCCCTGTTTTTTTTGAAAGACGGAGTCACCTAGTGCAG”, the binding signal was 13300 fluorescence intensity (a.u.). “GCCATCCTCTTCCTTCGCCGCCGGTCCACTCACCCCTAACCGGAGTCACCTAGTGCAG” was tested, and the binding signal was 9920 fluorescence intensity (a.u.). For “GAGAAGAATATAACCCGATCGTCTCTGCCTTCCATTTTGCCGGAGTCACCTAGTGCAG”, the binding signal was 9990 fluorescence intensity (a.u.). In the case of “ATCTGAGCAGTACACTTTTCATCCGACGGTCCACATTGAACGGAGTCACCTAGTGCAG”, the binding signal is reported as 9810 fluorescence intensity (a.u.). “ATCATTTATCTATATGTTTTTTCAACGCCGATTCAAACCCCGGAGTCACCTAGTGCAG” was tested, and the binding signal was 8320 fluorescence intensity (a.u.). “AAATTCGACTCCGCATTCCATACGCACACAATATCTCCCTCGGAGTCACCTAGTGCAG” was tested, and the binding signal was 8850 fluorescence intensity (a.u.). In the case of “TCTGTTTTTTTTTCATTTTTCAGAAATTTCGCCCGCAATTCGGAGTCACCTAGTGCAG”, the binding signal is reported as 8120 fluorescence intensity (a.u.). “CACTAACTCTCTCTCTCCATTTTCTTTTTCCCTCCGACGGCGGAGTCACCTAGTGCAG” was tested, and the binding signal was 9630 fluorescence intensity (a.u.). With “CGTTGTTCCTCAGTTCGGTACTTCTTCTTCCTTCACTCTCCGGAGTCACCTAGTGCAG” the binding signal was 8350 fluorescence intensity (a.u.). “GAGGGTGGTGGATCTGTCGCCGTAGCCCGTCGCCTCCAACCGGAGTCACCTAGTGCAG” was tested, and the binding signal was 8140 fluorescence intensity (a.u.). With “CCCGGCCCATCTCTCTGGCTCGCACTCCGCCTCCGCCACCCGGAGTCACCTAGTGCAG” the binding signal was 10500 fluorescence intensity (a.u.). With “CTGCTAGATGTTCCACCCATTGCAGTGGTTTGGTTTTCACCGGAGTCACCTAGTGCAG” the binding signal was 8620 fluorescence intensity (a.u.). In the case of “CCCACCACCCAGCCACACTCCCACTTTCTCTCTCATCTCACGGAGTCACCTAGTGCAG”, the binding signal is reported as 12600 fluorescence intensity (a.u.). “TAGGGTTTGGATGGATAGGGTATATGAGGGTAATTTAGGCCGGAGTCACCTAGTGCAG” was tested, and the binding signal was 8450 fluorescence intensity (a.u.). “TCAACAACTCTGTCTGCACCCTCTCCTACAAGCCTTCATGCGGAGTCACCTAGTGCAG” was tested, and the binding signal was 8230 fluorescence intensity (a.u.). With “TATCACATCAATTCAAAATTTTCTCTATCCTACCCCTTAACGGAGTCACCTAGTGCAG” the binding signal was 8100 fluorescence intensity (a.u.). For “CTGTAGAGAAATACTACACTACTGTACACTACATTCCTGCCGGAGTCACCTAGTGCAG”, the binding signal was 8350 fluorescence intensity (a.u.). “AGGTTATAAGACGTTTTGACTTTGGTTAAAGTCAAACTACCGGAGTCACCTAGTGCAG” was tested, and the binding signal was 9600 fluorescence intensity (a.u.). “GGATGTAGATGCTCTTTTTTTTTTCTTTCTCTTTGACAGGCGGAGTCACCTAGTGCAG” was tested, and the binding signal was 9370 fluorescence intensity (a.u.). In the case of “TCAGTTTTATCTTGTACGGTACTATTGATGTTAATGATTCCGGAGTCACCTAGTGCAG”, the binding signal is reported as 8870 fluorescence intensity (a.u.). For “AGTTCTTGGAGTCACATGGTTGGTGGTGGTGTGGGCAGTTCGGAGTCACCTAGTGCAG”, the binding signal was 14200 fluorescence intensity (a.u.). For “CTTTTTGGTGCTTGCAATGTTTATTTGTGGTTTATTGATTCGGAGTCACCTAGTGCAG”, the binding signal was 9840 fluorescence intensity (a.u.). For “ACACGGTCACAATACGTCTCAACCAGGGGTAGCTGTCCTTCGGAGTCACCTAGTGCAG”, the binding signal was 9570 fluorescence intensity (a.u.). For “AACTGTATCATACCACACTTTCTTACCCTTGGGACTCATACGGAGTCACCTAGTGCAG”, the binding signal was 9180 fluorescence intensity (a.u.). “ACTGCTTGTTTAATTATCTTTCGCTTTCCAGTTTAATTATCGGAGTCACCTAGTGCAG” was tested, and the binding signal was 10900 fluorescence intensity (a.u.). With “AATTTTTGGGTGTCACATCGAACGTTTGACCGGATGTCGGCGGAGTCACCTAGTGCAG” the binding signal was 9390 fluorescence intensity (a.u.). With “CTCATCCGAGTGGGTGGGCGGGGAGAGATCTAGGGCTTGCCGGAGTCACCTAGTGCAG” the binding signal was 11700 fluorescence intensity (a.u.). For “TGCACCTGTTTGGCTTAGTACCAGTGCGCTACTGGTTTCACGGAGTCACCTAGTGCAG”, the binding signal was 9680 fluorescence intensity (a.u.). With “ACGCCGATGCATGATGATTGCTGTAAATCATATACACTTCCGGAGTCACCTAGTGCAG” the binding signal was 8070 fluorescence intensity (a.u.). With “GATCAACTCCATCCTTCTAGATCTGCATACCTCCAAACACCGGAGTCACCTAGTGCAG” the binding signal was 10400 fluorescence intensity (a.u.). “ATATATCATTCACTTATTTTGCTGTGTTTTCTTTTCTTACCGGAGTCACCTAGTGCAG” was tested, and the binding signal was 8750 fluorescence intensity (a.u.). With “TTTTCCTCTGTATTGCACCGTCACTCGTAGTCTACTCCATCGGAGTCACCTAGTGCAG” the binding signal was 8380 fluorescence intensity (a.u.). With “CATTACTTTTCTGTTCTAAGATATAAACTCTTTTGTGTTTCGGAGTCACCTAGTGCAG” the binding signal was 8890 fluorescence intensity (a.u.). “TTCTTCATGCTGTTCCAGACTCTGGTACTTTCTCTGTTCACGGAGTCACCTAGTGCAG” was tested, and the binding signal was 8450 fluorescence intensity (a.u.). With “AGTTTGCAACTCTTCCCTGCTTCCATGTTACCGACACTTACGGAGTCACCTAGTGCAG” the binding signal was 13200 fluorescence intensity (a.u.). With “TTAAGGTTAGTTACTCCTCATTTTTGTTAACACGTCTTTTCGGAGTCACCTAGTGCAG” the binding signal was 13100 fluorescence intensity (a.u.). In the case of “TGACGCCGTTGACTTTTTATCTAATGTTTGACTATTCGTCCGGAGTCACCTAGTGCAG”, the binding signal is reported as 43500 fluorescence intensity (a.u.). In the case of “CGAAGCAACGAACCCAACACACGCATTATATCTAGTACAGCGGAGTCACCTAGTGCAG”, the binding signal is reported as 8260 fluorescence intensity (a.u.).
